{"sequences": {"note": "Protein sequences, listed by entry. Tags and fused reporters are not part of them. Lines headed by an entry give the natural chain unless they say otherwise; changes in a name come on top.", "UniProt P18054": "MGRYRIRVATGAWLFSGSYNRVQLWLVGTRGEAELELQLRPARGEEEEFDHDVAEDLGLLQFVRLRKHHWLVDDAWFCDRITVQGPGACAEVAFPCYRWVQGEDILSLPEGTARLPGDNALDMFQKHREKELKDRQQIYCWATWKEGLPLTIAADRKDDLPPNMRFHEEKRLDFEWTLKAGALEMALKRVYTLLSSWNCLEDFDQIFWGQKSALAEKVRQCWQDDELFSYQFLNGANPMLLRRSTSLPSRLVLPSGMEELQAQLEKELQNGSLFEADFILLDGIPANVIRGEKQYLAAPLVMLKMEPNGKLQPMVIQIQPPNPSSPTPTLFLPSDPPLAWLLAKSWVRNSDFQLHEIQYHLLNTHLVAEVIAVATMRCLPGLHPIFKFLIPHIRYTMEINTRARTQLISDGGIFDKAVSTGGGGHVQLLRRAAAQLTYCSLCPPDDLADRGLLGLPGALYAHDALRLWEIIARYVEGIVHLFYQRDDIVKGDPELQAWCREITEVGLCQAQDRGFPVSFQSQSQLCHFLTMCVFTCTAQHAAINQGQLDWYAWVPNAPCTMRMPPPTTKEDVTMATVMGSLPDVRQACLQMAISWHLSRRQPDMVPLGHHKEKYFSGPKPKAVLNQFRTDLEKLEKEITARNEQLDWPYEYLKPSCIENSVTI"}, "source": "PubChem BioAssay AID1671190", "about": "(National Center for Advancing Translational Sciences (NCATS), 2021)", "note": "“And” between values parts separate entries of the source, which are not always exact repeats. Equal values may be shown once. Out of some 580,000 compounds screened, about 6,100 (1.1%) were called active. The shares of active, inactive and inconclusive entries below differ from those in the screen. Calls come from the whole dose curve; as a rule, active = well fitted inhibition curve with a large enough effect; inconclusive = small, poorly fitted or top-dose-only effect, or another doubt; inactive = no such curve, though single readings can be large or run the other way. A potency beside an inconclusive call is a rough fit, not a confirmed value. % is set by controls: 0 for no effect and ±100 for the full control effect; potency is the fitted concentration of half-maximal effect.", "data": [{"target": "Polyunsaturated fatty acid lipoxygenase ALOX12 (Homo sapiens) (UniProt P18054)", "experiment": "Primary qHTS assay for inhibitors of human arachidonate 12S-lipoxygenase (ALOX12): Round 2", "details": "purified 12hLO, xylenol orange hydroperoxide absorbance; activity change, negative = inhibition: at 108 µM (top of the series) unless noted", "in_short": "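Hydroperoxide product was detected by ferrous iron/xylenol orange as the 573 to 405 nm absorbance ratio. Arachidonic acid at 40 uM (final) was turned over for 30 min at room temperature by 150 nM human 12hLO, pH 7.0 Hepes buffer, after 15 min compound preincubation.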", "values": [{"smiles": "COc1ccccc1N1CCN(C(C(=O)O)c2c[nH]c3cc(NC(=O)CCC(=O)O)ccc23)CC1", "note": "(centres undefined)", "Potency": "inconclusive: 39.8 µM [inhibitor, partial curve, poor fit]"}, {"smiles": "CCc1cc(SC#N)cc(CC)c1NC(=O)CCl", "activity change, negative = inhibition": "inactive: -27.2%"}, {"smiles": "Cc1cccc(CS(=O)(=O)c2ncc(Cl)c(C(=O)Nc3nnc(C(C)C)s3)n2)c1", "Potency": "inconclusive: 100 µM [inhibitor, partial curve, poor fit]"}, {"smiles": "C/C(=N/NC(=O)c1cc(C)[nH]n1)c1ccncc1", "Potency": "inconclusive: 2 µM [inhibitor, full curve, poor fit]"}, {"smiles": "Cc1ccc(NC(=O)C2CCN(C(=O)C(C)(C)C)CC2)cc1S(=O)(=O)N1CCCCC1", "activity change, negative = inhibition": "inactive: -7.52%"}, {"smiles": "CCOC(=O)c1sc(NC(=O)CN2C(=O)NC3(CC(C)CC(C)(C)C3)C2=O)cc1C", "note": "(centres undefined)", "Potency": "inconclusive: 10 µM [inhibitor, full curve, poor fit]"}, {"smiles": "O=C1NC[C@H](CCCCN2C[C@H](Cc3ccccc3)N(CCc3ccccc3)C(=O)C2=O)N(CCc2ccc(O)cc2)C1=O", "Potency": "inconclusive: 70.8 µM [inhibitor, partial curve, poor fit]"}, {"smiles": "CNC(=S)N/N=C/c1cc(Br)cc(Br)c1O", "Potency": "inconclusive: 39.8 µM [inhibitor, partial curve]"}, {"smiles": "COc1ccc(N2C(=O)[C@H]3CCC=C[C@H]3[C@@H]2c2ccccc2Br)cc1", "Potency": "inconclusive: 89.1 µM [inhibitor, single point]"}, {"smiles": "COc1ccc(NS(=O)(=O)c2ccc3nc(COc4cccc5ccccc45)[nH]c3c2)cc1", "Potency": "inconclusive: 14.1 µM [inhibitor, partial curve]"}, {"smiles": "O=C(CCN1CCOCC1)N1c2ccccc2Sc2ccc(Cl)cc21", "activity change, negative = inhibition": "inactive: -7.43%"}, {"smiles": "CCc1sc(C(=O)NCc2cccnc2)cc1C", "activity change, negative = inhibition": "inactive: -16.6%"}, {"smiles": "Cc1nc(C(C)C)sc1C(=O)N[C@H]1C[C@H]2CN(C)CCN2C1", "activity change, negative = inhibition": "inactive: 46.9%"}, {"smiles": "COc1ccccc1CNc1nc2c(S(=O)(=O)c3ccc(C)c(C)c3)nnn2c2ccc(Cl)cc12", "Potency": "inconclusive: 100 µM [inhibitor, partial curve, poor fit]"}, {"smiles": "O=S(=O)(c1ccc(Cl)cc1)N1CCN2CCCC2C1", "note": "(centres undefined)", "Potency": "inconclusive: 44.7 µM [inhibitor, partial curve, poor fit]"}, {"smiles": "COc1ccc(CN2CCN(Cc3c[nH]c4ccccc34)CC2)c(OC)c1", "Potency": "inconclusive: 3.55 µM [inhibitor, full curve, poor fit]"}, {"smiles": "CSc1cccc(NC(=O)C2CCN(c3cnc4nc(C)c(C)nc4c3)CC2)c1", "activity change, negative = inhibition": "inactive: 34.2%"}, {"smiles": "CC(c1nnc(SCC(=O)c2c(N)n(C3CC3)c(=O)[nH]c2=O)n1-c1ccc(F)cc1)N(C)C", "note": "(centres undefined)", "activity change, negative = inhibition": "inactive: 1.58%"}, {"smiles": "CC1CCCC(C)N1C(=O)CSc1nnnn1C1CCCC1", "note": "(centres undefined)", "Potency": "inconclusive: 112 µM [inhibitor, partial curve, poor fit]"}, {"smiles": "Cc1ccccc1CN1C(=O)c2ccccc2Sc2ccc(C(=O)NCCN3CCOCC3)cc21", "Potency": "inconclusive: 89.1 µM [inhibitor, partial curve, poor fit]"}, {"smiles": "CCN(CCO)C(=S)Nc1cc(C(=O)OC)ccc1C(=O)OC", "Potency": "inconclusive: 28.2 µM [inhibitor, single point]"}, {"smiles": "COc1ccc2ccccc2c1CNC(C)CCc1ccccc1", "note": "(centres undefined)", "Potency": "inconclusive: 126 µM [inhibitor, single point]"}, {"smiles": "C=CCc1cc(C)ccc1OCCCn1ccnc1", "Potency": "inconclusive: 0.562 µM [inhibitor, full curve, poor fit]"}, {"smiles": "COc1ccccc1CNC(=O)N1CCN(S(=O)(=O)c2ccc(C)cc2)CC1", "activity change, negative = inhibition": "inactive: -15.5%"}, {"smiles": "COc1ccc2oc(C(=O)OCC(=O)N(C)c3ccccc3)c(C)c2c1", "Potency": "inconclusive: 89.1 µM [inhibitor, single point]"}, {"smiles": "COc1cccc(NC(=O)CCC2CCN(C(=O)c3cncs3)CC2)c1", "Potency": "inconclusive: 100 µM [inhibitor, single point]"}, {"smiles": "CCN1CCN(c2ccc(S(=O)(=O)N3CCOCC3)cc2NC(=O)c2ccc(C)c(C)c2)CC1", "activity change, negative = inhibition": "inactive: -24.1%"}, {"smiles": "Brc1ccc(N/N=C(/N=Nc2nn[nH]n2)c2ccccc2)cc1", "Potency": "inconclusive: 44.7 µM [inhibitor, partial curve, poor fit]"}, {"smiles": "CCOC(=O)N1CCN(Cc2nc3cc(NC(C)=O)ccc3n2C)CC1", "Potency": "inconclusive: 2.82 µM [inhibitor, full curve, poor fit]"}, {"smiles": "CCC(C)NC(=O)Cc1csc(NC(=O)Nc2ccccc2)n1", "note": "(centres undefined)", "Potency": "inconclusive: 112 µM [inhibitor, single point]"}, {"smiles": "COc1ccccc1NC(=O)CSc1nc(C)cc(C)c1C(=O)Nc1ccccc1", "activity change, negative = inhibition": "inactive: 32.2%"}, {"smiles": "Cc1ccc2c(c1)c1c(n2CC2COC(C)(C)O2)C(=O)CCC1", "note": "(centres undefined)", "Potency": "inconclusive: 2.24 µM [inhibitor, single point]"}, {"smiles": "CCCn1nc2cc(C(=O)NCc3ccc4c(c3)OCO4)ccc2c1OCC", "Potency": "inconclusive: 50.1 µM [inhibitor, partial curve, poor fit]"}, {"smiles": "CC(C)(C)NC(=O)CN1C(=O)c2cccc3cccc1c23", "Potency": "inconclusive: 126 µM [inhibitor, partial curve, poor fit]"}, {"smiles": "CC(NC(=O)c1ccccc1)c1ccc(Br)cc1", "note": "(centres undefined)", "Potency": "inconclusive: 112 µM [inhibitor, single point]"}, {"smiles": "NC(=O)C1CCCN(C(=O)c2ccc3nc(Cc4cccc(Cl)c4)oc3c2)C1", "note": "(centres undefined)", "activity change, negative = inhibition": "inactive: 7.28%"}, {"smiles": "COC(=O)COc1c(Br)cc(/C=C2/NC(=O)NC2=O)cc1Br", "activity change, negative = inhibition": "inactive: 34.4%"}, {"smiles": "O=C1NCc2ccccc2CC12CCN(Cc1ccc(-c3ccccc3)cc1)CC2", "Potency": "inconclusive: 50.1 µM [inhibitor, partial curve]"}, {"smiles": "CN(C)CCCNC(=S)NCC(c1ccc(Cl)cc1Cl)c1c[nH]c2ccccc12", "note": "(centres undefined)", "Potency": "inconclusive: 44.7 µM [inhibitor, partial curve, poor fit]"}, {"smiles": "C=CCn1c(SCC(=O)N2CCOCC2)nc2c([nH]c3ccccc32)c1=O", "Potency": "inconclusive: 35.5 µM [inhibitor, single point]"}, {"smiles": "COc1ccc(OC)c(C2/C(=C(\\O)c3ccc4c(c3)OCCO4)C(=O)C(=O)N2CC2CCCO2)c1", "note": "(centres undefined)", "Potency": "inconclusive: 4.47 µM [inhibitor, full curve, poor fit]"}, {"smiles": "COc1ccc(NC(C)=O)c([N+](=O)[O-])c1[N+](=O)[O-]", "Potency": "inconclusive: 89.1 µM [inhibitor, partial curve, poor fit]"}, {"smiles": "CCCCOC(=O)c1nc2ccccc2nc1NCc1ccccc1", "activity change, negative = inhibition": "inactive: 1.85%"}, {"smiles": "CCn1cc(S(=O)(=O)N2CCC(c3ncc(C)n3CCOC)C2)cn1", "note": "(centres undefined)", "activity change, negative = inhibition": "inactive: 34.7%"}, {"smiles": "COc1cc(/C=C/c2cccc[n+]2C)ccc1OCC(=O)Nc1ccccc1", "Potency": "inconclusive: 50.1 µM [inhibitor, partial curve, poor fit]"}, {"smiles": "Cn1c(-n2cccc2)c(-c2c(-c3ccc(Cl)cc3)[nH]c3c2c(=O)[nH]c(=O)n3C)c(=O)[nH]c1=O", "activity change, negative = inhibition": "inactive: -24.8%"}, {"smiles": "CC(C)c1cccc(O)c(=O)c1", "Potency": "active: 22.4 µM and active: 14.1 µM and inconclusive: 316 nM [inhibitor, full curve, poor fit]"}, {"smiles": "Cc1onc(-c2ccccc2)c1C(=O)NNC(=S)NC(=O)/C=C/c1cccs1", "Potency": "inconclusive: 7.94 µM [inhibitor, partial curve, poor fit]"}, {"smiles": "Cc1cc(Cl)ccc1NC(=O)Cn1nc(C)c2ccccc2c1=O", "Potency": "inconclusive: 126 µM [inhibitor, partial curve, poor fit]"}, {"smiles": "Cc1cc(C)c2nc(N(CCCN(C)C)C(=O)c3ccc(S(=O)(=O)N4CCCCCC4)cc3)sc2c1", "Potency": "inconclusive: 141 µM [inhibitor, partial curve, poor fit]"}, {"smiles": "Cc1ccc(CN2CCC3(CC2)CC(=O)N(c2ccccc2)c2ccccc2O3)cc1", "Potency": "inconclusive: 50.1 µM [inhibitor, partial curve]"}, {"smiles": "Cc1ccc(S(=O)(=O)c2nc(-c3ccccc3)oc2N(C)C)cc1", "Potency": "inconclusive: 44.7 µM [inhibitor, full curve, poor fit]"}, {"smiles": "CC(=O)c1c(C)[nH]c(C(=O)C(C)Oc2ccc(Cl)cc2Br)c1C", "note": "(centres undefined)", "Potency": "inconclusive: 31.6 µM [inhibitor, partial curve, poor fit]"}, {"smiles": "COc1cccc(/C=C2\\SC(=S)N(NS(=O)(=O)c3ccccc3)C2=O)c1OC", "Potency": "inconclusive: 35.5 µM [inhibitor, single point]"}, {"smiles": "Cc1ccc(S(=O)(=O)Nc2ccc(O)c3ncccc23)cc1", "Potency": "inconclusive: 44.7 µM [inhibitor, partial curve, poor fit]"}, {"smiles": "COCCn1c(=O)c(-c2cccs2)nc2cnc(N(C)C)nc21", "Potency": "inconclusive: 112 µM [inhibitor, single point]"}, {"smiles": "O=c1c(C/C=C/c2ccccc2)c(O)nc2n1CCCS2", "activity change, negative = inhibition": "inactive: 0%"}, {"smiles": "CCOc1ccc(S(=O)(=O)N2CCN(C(C(=O)O)c3c[nH]c4ccccc34)CC2)cc1", "note": "(centres undefined)", "activity change, negative = inhibition": "inactive: -4.18%"}, {"smiles": "Cc1cc2nc(-c3cccc(NC(=O)c4cccnc4)c3)oc2cc1C", "Potency": "inconclusive: 0.316 µM [inhibitor, full curve, poor fit]"}, {"smiles": "COCC1(CNS(=O)(=O)c2ccc(F)cc2)C[C@@H](O)[C@@H](O)C1", "note": "(some centres undefined)", "Potency": "inconclusive: 70.8 µM [inhibitor, partial curve]"}, {"smiles": "O=C(Nc1ccc([N+](=O)[O-])cc1NC(=O)c1ccccc1)c1ccccc1", "activity change, negative = inhibition": "inactive: -8.67%"}, {"smiles": "CCn1c(SC(C)C(=O)O)nc2sc3c(c2c1=O)CCC3", "note": "(centres undefined)", "Potency": "inconclusive: 50.1 µM [inhibitor, partial curve, poor fit]"}, {"smiles": "Cc1nccn1CC(O)COC1CCCCC1", "note": "(centres undefined)", "Potency": "inconclusive: 0.199 µM [inhibitor, full curve, poor fit]"}, {"smiles": "O=C(NCc1ccccc1)C(c1ccccc1)n1c(C2CC2)nc2ccccc21", "note": "(centres undefined)", "Potency": "inconclusive: 0.708 µM [inhibitor, full curve]"}]}]}
